PubChem BioAssay AID248 (DTP/NCI, 2004)
The list is a part of this screen's results and no random one: it is rich in T/C values a quarter to a half above the control, in often repeated tests (any T/C) and in doses without a T/C. Other doses and runs of a compound stand elsewhere. T/C: endpoint of the treated group in % of that of the vehicle group. Some doses have a count of surviving animals in place of a T/C: the source files T/C as zero there, which appears to mark a toxic dose or a test without result, not a measured value. Some doses without a T/C left all or most animals alive at the check, yet need not have been tolerated: the source hardly ever lists a survival T/C far under the control, and the zero likely stands for such cases as well. Survivors were counted at the toxicity check, usually on the fifth day, unless a day is given; later deaths do not show. Schedules are NCI's codes, read here as Q, the interval in days (D) or hours (H), X, the number of doses. Some schedules carry Z or #; the key to these is not given. Some structures stand for samples that the source files as different forms (salt, stereo form or complex); doses refer to the form tested. Some entries were tested several times; the values are given in rising order. For survival time, this PubChem deposit counts one and a half times the control or more as active, and values a quarter to a half above the control carry no call in these data; other NCI protocols may use other cut-offs. Some T/C values are followed by the survivors on the day toxicity was checked, most often the fifth; without a count, all were alive then.

System: L1210 leukemia ip in BDF1 mice, survival T/C
Assay: NCI In Vivo Anticancer Drug Screen. Data for tumor model L1210 Leukemia (intraperitoneal) in B6D2F1 (BDF1) mice
Conditions: T/C endpoint: mean survival time, higher T/C = longer survival
[1] = dose: 100.0 mg/kg/injection, schedule: Q01DX009 (ip), vehicle: saline
[2] = dose: 200.0 mg/kg/injection, schedule: Q04DX002 (ip), vehicle: Klucel (hydroxypropylcellulose) (HPC)
[3] = dose: 400.0 mg/kg/injection, schedule: Q04DX003 (ip), vehicle: saline
[4] = dose: 100.0 mg/kg/injection, schedule: Q01DX001 (ip), vehicle: other
[5] = dose: 200.0 mg/kg/injection, schedule: Q01DX001 (ip), vehicle: other
[6] = dose: 400.0 mg/kg/injection, schedule: Q01DX001 (ip), vehicle: other
[7] = dose: 400.0 mg/kg/injection, schedule: Q01DX009 (ip), vehicle: Klucel (hydroxypropylcellulose) (HPC)
[8] = dose: 200.0 mg/kg/injection, schedule: Q04DX003 (ip), vehicle: saline with Tween-80
[9] = dose: 400.0 mg/kg/injection, schedule: Q04DX003 (ip), vehicle: saline with Tween-80
[10] = dose: 400.0 mg/kg/injection, schedule: Q01DX001 (ip), vehicle: saline
[11] = dose: 300.0 mg/kg/injection, schedule: Q01DX001 (ip), vehicle: carboxymethylcellulose (CMC)
[12] = dose: 400.0 mg/kg/injection, schedule: Q01DX009 (ip), vehicle: saline
[13] = dose: 400.0 mg/kg/injection, schedule: Q04DX002 (ip), vehicle: Klucel (hydroxypropylcellulose) (HPC)

Cc1cc(N=[N+]([O-])c2ccc(N)c(C)c2)ccc1N
survivor count [1]: 5 of 6

CCCSC(CCc1cnc(N)nc1C)SCCC
survivor count (dose: 100.0 mg/kg/injection, schedule: Q04DX002 (ip), vehicle: Klucel (hydroxypropylcellulose) (HPC)): 3 of 3
survivor count [2]: 3 of 3

O=[N+]([O-])c1cc(Br)ccc1O
survivor count [3]: 1 of 6

COC(=O)c1nc(Cl)nc(I)c1Cl
survivor count (dose: 50.0 mg/kg/injection, schedule: Q01DX001 (ip), vehicle: other): 1 of 6
survivor count [4]: 0 of 6
survivor count [5]: 0 of 6
survivor count [6]: 0 of 6

C=C(C)COc1ccccc1
survivor count [7]: 2 of 3

CN=C(N)c1cccc(NC(=O)c2ccc(C(=O)Nc3cccc(C(N)=NC)c3)cc2)c1
survivor count (dose: 60.0 mg/kg/injection, schedule: Q01DX Z (ip), vehicle: saline): 0 of 6
survivor count (dose: 120.0 mg/kg/injection, schedule: Q01DX Z (ip), vehicle: saline): 0 of 6

CCC(/C=C/C(C)C1CCC2C3CC=C4CC(O)CCC4(C)C3CCC12C)C(C)C (stereo not drawn) (tested in a mixture with another compound)
survivor count (dose: 100.0 mg/kg/injection, schedule: Q01DX001 (ip), vehicle: water): 6 of 6
survivor count [8]: 6 of 6
survivor count (dose: 400.0 mg/kg/injection, schedule: Q01DX001 (ip), vehicle: water): 0 of 6 and 3 of 6
survivor count [9]: 2 of 6

CCCC(CCC)NC(CC)COC(=O)c1ccc(N)cc1 (stereo not drawn)
survivor count (dose: 150.0 mg/kg/injection, schedule: Q01DX001 (ip), vehicle: other): 3 of 6
survivor count (dose: 300.0 mg/kg/injection, schedule: Q01DX001 (ip), vehicle: other): 0 of 6

c1ccc(C2COC3(CCCCC3)O2)cc1 (stereo not drawn)
survivor count (dose: 500.0 mg/kg/injection, schedule: Q01DX Z (ip), vehicle: methylcellulose (MC)): 6 of 6

CS(=O)(=O)CC(=O)c1ccccc1
survivor count [9]: 5 of 6

CCCCC(CCCC)c1cc[n+](CC(=O)c2ccccc2)cc1
survivor count (dose: 25.0 mg/kg/injection, schedule: Q01DX001 (ip), vehicle: saline): 6 of 6
survivor count (dose: 100.0 mg/kg/injection, schedule: Q01DX001 (ip), vehicle: saline): 0 of 6
survivor count (dose: 200.0 mg/kg/injection, schedule: Q01DX001 (ip), vehicle: saline): 0 of 6
survivor count [10]: 0 of 6

CCCCCCCCCCOC(=O)COc1ccc(C(C)(C)C)cc1
survivor count (dose: 50.0 mg/kg/injection, schedule: Q01DX009 (ip), vehicle: saline): 3 of 3

COc1ccc(OC)c(NC(=O)c2c(Br)c(Br)c(Br)c(Br)c2C(=O)O)c1
survivor count [7]: 1 of 6

COc1cc2c(cc1O)CCN(C)C2Cc1ccc(OC)c(OC)c1 (stereo not drawn)
survivor count [11]: 1 of 6

CC(C)OCCCN=C(N)N
survivor count [1]: 1 of 6
survivor count (dose: 100.0 mg/kg/injection, schedule: Q04DX003 (ip), vehicle: saline): 5 of 6
survivor count (dose: 200.0 mg/kg/injection, schedule: Q01DX009 (ip), vehicle: saline): 0 of 6
survivor count (dose: 200.0 mg/kg/injection, schedule: Q04DX003 (ip), vehicle: saline): 0 of 6
survivor count [3]: 0 of 6

CC1(O)CSC(C)(O)CS1 (stereo not drawn)
survivor count (dose: 25.0 mg/kg/injection, schedule: Q04DX002 (ip), vehicle: saline with Tween-80): 3 of 3

CC1=NNC(=O)C1(Br)Br
survivor count [4]: 0 of 6
survivor count [5]: 0 of 6
survivor count [6]: 0 of 6

C=CC[As](C)(=O)O
survivor count [12]: 0 of 6

O=C(O)COc1ccc(Cl)c2ccccc12
survivor count [13]: 1 of 3

COc1ccc(/C(C#N)=C/c2ccc(N(C)CCC#N)cc2)cc1
survivor count (dose: 50.0 mg/kg/injection, schedule: Q01DX009 (ip), vehicle: Klucel (hydroxypropylcellulose) (HPC)): 0 of 6

Cc1nc(Br)c(Br)n1C
survivor count [2]: 3 of 3
survivor count [13]: 0 of 3
survivor count (dose: 400.0 mg/kg/injection, schedule: Q04DX002 (ip), vehicle: carboxymethylcellulose (CMC)): 0 of 3 and 1 of 6
survivor count (dose: 400.0 mg/kg/injection, schedule: Q04DX003 (ip), vehicle: carboxymethylcellulose (CMC)): 6 of 6

c1ccc2c(c1)CCCc1cn[nH]c1-2
survivor count [10]: 0 of 4

Cc1[nH]c(=O)[nH]c(=O)c1Br
survivor count (dose: 300.0 mg/kg/injection, schedule: Q01DX Z (ip), vehicle: methylcellulose (MC)): 6 of 6

CCC(C)C(=NC)Nc1ccc(Cl)c(Cl)c1 (stereo not drawn)
survivor count (dose: 166.0 mg/kg/injection, schedule: Q01DX Z (ip), vehicle: methylcellulose (MC)): 0 of 6
survivor count (dose: 250.0 mg/kg/injection, schedule: Q01DX Z (ip), vehicle: methylcellulose (MC)): 0 of 6

CC1(C)N=C(N)N=C(N)N1c1ccc(OCCOc2ccc(NC(=O)CBr)cc2)cc1
T/C (dose: 176.0 mg/kg/injection, schedule: Q01DX009 (ip), vehicle: saline): 138 % of control [5 of 6 alive]
survivor count (dose: 264.0 mg/kg/injection, schedule: Q01DX009 (ip), vehicle: other): 1 of 6
T/C (dose: 266.0 mg/kg/injection, schedule: Q01DX009 (ip), vehicle: saline): 132 % of control
survivor count (dose: 400.0 mg/kg/injection, schedule: Q01DX009 (ip), vehicle: other): 0 of 6
survivor count [12]: 4 of 6
survivor count (dose: 600.0 mg/kg/injection, schedule: Q01DX009 (ip), vehicle: other): 0 of 6
survivor count (dose: 600.0 mg/kg/injection, schedule: Q01DX009 (ip), vehicle: saline): 1 of 6

CCOC(=O)C=C1CCP(C)CC1 (stereo not drawn)
survivor count [11]: 0 of 6

CC1=CC(=O)C=CC1(C)C
survivor count [7]: 1 of 6

c1ccc2c(c1)CCc1ccccc1C2NC1=NCCO1
survivor count (dose: 100.0 mg/kg/injection, schedule: Q04DX003 (ip), vehicle: saline with Tween-80): 3 of 6
survivor count [8]: 4 of 6
survivor count [9]: 1 of 6

BrC[P+](c1ccccc1)(c1ccccc1)c1ccccc1
survivor count (dose: 25.0 mg/kg/injection, schedule: Q04DX002 (ip), vehicle: saline): 0 of 3
survivor count (dose: 50.0 mg/kg/injection, schedule: Q04DX002 (ip), vehicle: saline): 0 of 3
survivor count (dose: 100.0 mg/kg/injection, schedule: Q04DX002 (ip), vehicle: saline): 0 of 3
survivor count (dose: 200.0 mg/kg/injection, schedule: Q04DX002 (ip), vehicle: saline): 0 of 3
survivor count (dose: 400.0 mg/kg/injection, schedule: Q04DX002 (ip), vehicle: saline): 0 of 3

C=CC(=O)c1c(O)cc(O)c2c1C(C)C(=O)O2 (stereo not drawn)
survivor count (dose: 150.0 mg/kg/injection, schedule: Q01DX009 (ip), vehicle: Klucel (hydroxypropylcellulose) (HPC)): 4 of 6
survivor count (dose: 200.0 mg/kg/injection, schedule: Q04DX003 (ip), vehicle: Klucel (hydroxypropylcellulose) (HPC)): 3 of 6
survivor count (dose: 300.0 mg/kg/injection, schedule: Q01DX009 (ip), vehicle: Klucel (hydroxypropylcellulose) (HPC)): 1 of 6
survivor count [10]: 1 of 4
survivor count (dose: 400.0 mg/kg/injection, schedule: Q04DX003 (ip), vehicle: Klucel (hydroxypropylcellulose) (HPC)): 5 of 6
